Test results taken from article PMC12223117.
These are yes or no findings as the source states them, for the method shown. Binding seen in cells or lysates may run through a third protein.

Protein sequences, listed by entry. Tags and fused reporters are not part of them.
UniProt H0Y354: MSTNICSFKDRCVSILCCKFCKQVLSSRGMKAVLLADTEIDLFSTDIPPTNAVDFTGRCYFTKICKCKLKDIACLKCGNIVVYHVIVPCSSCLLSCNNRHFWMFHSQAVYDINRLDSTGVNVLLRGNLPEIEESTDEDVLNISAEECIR

Biological target: HA-tagged FAM72C (human) (UniProt H0Y354)
Assay: co-IP; anti-HA on protein G beads from lysates of FAM72-/- HCT116 cells expressing HA-FAM72A/B/C/D, cells treated with 20 uM MG132 for 6 h; lysis in 40 mM Tris-HCl pH 7.5, 150 mM NaCl, 1 mM EDTA, 10 mM NaF, 1% NP-40 substitute; overnight; blot for UNG

## Uracil DNA glycosylase 2 (UNG2), endogenous (from UniProt P13051-1 1-313)
  binding: no binding
